# According to patent publication US20240166669A1, “QUINAZOLINE AMINE DERIVATIVES AS KRAS INHIBITORS” (Nikang Therapeutics, Inc., priority 2021, published 2024):
# Protein sequences, listed by entry. Tags and fused reporters are not part of them. Residues count along the entry.
# UniProt P01116, 1-188 isoform 2 G12D: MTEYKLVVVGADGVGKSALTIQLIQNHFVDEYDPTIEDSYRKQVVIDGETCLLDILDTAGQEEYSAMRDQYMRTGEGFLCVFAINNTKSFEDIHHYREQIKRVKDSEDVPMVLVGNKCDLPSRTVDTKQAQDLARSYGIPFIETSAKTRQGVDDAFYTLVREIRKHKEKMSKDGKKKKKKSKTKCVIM
# Structures were worked out from names or drawings and are uncertain.
# Target: K-Ras 12D (Homo sapiens, UniProt P01116, G12D)
# Experiment: p-ERK Cellular Assay (Biological Example 1)
# Assay type: cell-based
# Settings: read-out: AGS PERK EC50; PANC-1 or A-427 cells (KRAS G12D), 3 hours treatment, Cisbio HTRF p-ERK1/2; Biological Example 1 (value marked #); tested form: mixture of the two enantiomers (3aR,7aR)
# Description: The ability of the compound of Formula (IIA1′), (IIA′), (II′), or (II) or a pharmaceutically acceptable salt thereof (test compound) to inhibit K-Ras 12D activity was tested using PANC-1 (ATCC, CRL-1469) and A-427 (ATCC, HTB-53) cell lines which harbor KRAS G12D mutation as described below.
# PANC-1 (ATCC, CRL-1469) or A-427 (ATCC, HTB-53) were seeded in 96-well plates and cultured overnight (20,000 cells per well, 200 μl total volume). The following morning, cells were treated with test compound, with starting concentration at 10 μM and 2 log dilution down to 1 nM for 3 hours at 37° C. DMSO treatment served as control. p-ERK was then measured using Advanced Phospho-ERK 1/2 (Thr202/Tyr204) Assay Kit (Cisbio, Cat #64AERPET) following the manufacturer's instruction.
# Briefly, medium was removed and 40 μl 1× lysis buffer was added to each well followed by 30 min. incubation on a plate shaker at room temperature. Then 8 μl of lysate was transferred to a white low volume 384-well plate. […] Signal was then measured on a CLARIOstar® plate reader. […]
smiles,measurement,value
C#Cc1cccc2cc(O)cc(-c3ncc4c(N5CC6CCC(C5)N6)nc(OCC56CCCN5C5COCC5C6)nc4c3F)c12 (stereo not shown),EC50,5 nM
